Laboratory results as given in ChEMBL document CHEMBL5137074 (J Med Chem, 2022).

Experiments:
[1] = rat, in vivo, iv, 1 mg/kg, 24 h
[2] = Metabolic stability in human hepatocytes assessed as intrinsic clearance measured per 10^6 cells
[3] = Plasma protein binding in rat at 1 uM
[4] = Sprague-Dawley, rat, in vivo, po, 5 mg/kg, 24 h

Cc1ccc(O)c(C)c1-n1c(N)c(C(N)=O)c2nc(C)c(C)nc21
CL free [1]: 505 mL/min/kg | CLH [2]: < 3 µL/min | PPB [3]: 89.2% | F [4]: 20%
